For two substances, binding results are on record in article PMC9458672.

By UniProt entry, the sequences of proteins in these tests, tags left out. Where a name states a change or a piece, a line headed by the entry shows the natural chain unless it says otherwise.
UniProt Q15286: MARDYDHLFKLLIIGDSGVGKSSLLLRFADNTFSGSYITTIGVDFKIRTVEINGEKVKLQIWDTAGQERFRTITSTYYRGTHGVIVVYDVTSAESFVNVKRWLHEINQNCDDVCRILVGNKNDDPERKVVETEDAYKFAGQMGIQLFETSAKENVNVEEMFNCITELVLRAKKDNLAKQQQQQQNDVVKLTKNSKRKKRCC
UniProt Q15057: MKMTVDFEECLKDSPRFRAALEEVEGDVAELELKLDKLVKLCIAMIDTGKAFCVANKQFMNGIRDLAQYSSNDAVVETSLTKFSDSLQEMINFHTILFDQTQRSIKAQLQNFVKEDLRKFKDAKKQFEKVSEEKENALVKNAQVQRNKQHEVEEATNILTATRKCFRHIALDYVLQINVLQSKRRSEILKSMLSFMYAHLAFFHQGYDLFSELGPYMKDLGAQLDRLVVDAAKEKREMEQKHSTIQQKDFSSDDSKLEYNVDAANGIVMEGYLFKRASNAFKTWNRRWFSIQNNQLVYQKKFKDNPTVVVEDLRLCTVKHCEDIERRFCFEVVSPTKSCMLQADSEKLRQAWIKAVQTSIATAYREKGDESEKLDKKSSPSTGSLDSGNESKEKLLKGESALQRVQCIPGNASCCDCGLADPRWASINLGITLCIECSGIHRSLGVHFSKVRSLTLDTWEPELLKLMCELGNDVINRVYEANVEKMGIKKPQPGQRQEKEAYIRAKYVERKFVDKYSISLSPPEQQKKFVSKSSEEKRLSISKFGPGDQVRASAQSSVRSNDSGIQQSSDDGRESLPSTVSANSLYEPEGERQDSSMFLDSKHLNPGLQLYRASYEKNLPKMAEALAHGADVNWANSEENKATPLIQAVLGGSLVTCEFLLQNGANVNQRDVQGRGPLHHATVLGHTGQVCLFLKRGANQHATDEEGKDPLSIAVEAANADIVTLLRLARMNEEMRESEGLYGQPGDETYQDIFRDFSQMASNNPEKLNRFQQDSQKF
UniProt O00592: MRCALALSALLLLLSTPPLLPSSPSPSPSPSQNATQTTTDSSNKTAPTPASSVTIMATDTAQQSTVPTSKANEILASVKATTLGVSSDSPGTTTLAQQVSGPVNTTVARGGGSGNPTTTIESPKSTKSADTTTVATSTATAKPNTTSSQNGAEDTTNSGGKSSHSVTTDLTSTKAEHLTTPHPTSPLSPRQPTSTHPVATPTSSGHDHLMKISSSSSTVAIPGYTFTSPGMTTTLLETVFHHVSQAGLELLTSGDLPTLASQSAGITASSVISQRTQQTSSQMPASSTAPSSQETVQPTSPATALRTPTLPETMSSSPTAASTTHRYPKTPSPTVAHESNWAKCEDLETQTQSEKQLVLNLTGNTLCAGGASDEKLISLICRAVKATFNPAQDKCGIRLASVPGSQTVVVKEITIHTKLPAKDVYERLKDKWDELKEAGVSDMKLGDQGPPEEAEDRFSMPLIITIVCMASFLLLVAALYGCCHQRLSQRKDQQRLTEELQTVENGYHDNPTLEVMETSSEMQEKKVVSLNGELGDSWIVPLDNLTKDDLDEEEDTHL

Results are given in words; binding and its absence hold for the method and conditions named.

For this experiment, the target named is Tom20-Rab35 wild-type (mitochondrial-targeted Rab35) (UniProt Q15286). The experiment can be described thus: mitochondrial mislocalisation (Tom20 tethering) by fluorescence microscopy; bait tethered to mitochondria by a Tom20 tag and co-expressed with the candidate partner (or stained for the endogenous one) in HUVECs; relocation of the partner to mitochondria read by imaging and Pearson's coefficient.

Regarding “ACAP2 with the ankyrin repeat domain deleted (from UniProt Q15057)”, the binding result was “no binding”. In the case of “human podocalyxin cytoplasmic domain (residues 476–551) (from UniProt O00592) (domain or fragment)”, the binding result was “no binding”.
